Assay results taken from paper doi:10.1101/2021.01.04.425182.
These are yes or no findings as the source states them, for the method shown. In cells and extracts the contact can be indirect. A yes stands for co-enrichment or nearness to the bait. Other partners may have been found.

Amino acid sequences for entries named in this document (tags omitted). A change or cut given only in a name is not applied to a line headed by its entry.
UniProt P03956: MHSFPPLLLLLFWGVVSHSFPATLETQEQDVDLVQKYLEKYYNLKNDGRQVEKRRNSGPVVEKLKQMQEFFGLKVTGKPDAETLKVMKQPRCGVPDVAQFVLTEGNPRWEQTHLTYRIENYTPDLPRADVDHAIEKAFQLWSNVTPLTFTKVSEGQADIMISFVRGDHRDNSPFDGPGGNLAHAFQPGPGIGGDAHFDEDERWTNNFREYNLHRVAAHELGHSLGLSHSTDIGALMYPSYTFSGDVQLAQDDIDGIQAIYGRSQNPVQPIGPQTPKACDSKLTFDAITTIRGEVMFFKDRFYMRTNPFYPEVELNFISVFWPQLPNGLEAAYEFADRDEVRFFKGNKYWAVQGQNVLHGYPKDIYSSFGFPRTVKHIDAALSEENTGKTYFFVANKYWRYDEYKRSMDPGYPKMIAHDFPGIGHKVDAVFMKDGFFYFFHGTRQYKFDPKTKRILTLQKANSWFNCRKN
UniProt P08254: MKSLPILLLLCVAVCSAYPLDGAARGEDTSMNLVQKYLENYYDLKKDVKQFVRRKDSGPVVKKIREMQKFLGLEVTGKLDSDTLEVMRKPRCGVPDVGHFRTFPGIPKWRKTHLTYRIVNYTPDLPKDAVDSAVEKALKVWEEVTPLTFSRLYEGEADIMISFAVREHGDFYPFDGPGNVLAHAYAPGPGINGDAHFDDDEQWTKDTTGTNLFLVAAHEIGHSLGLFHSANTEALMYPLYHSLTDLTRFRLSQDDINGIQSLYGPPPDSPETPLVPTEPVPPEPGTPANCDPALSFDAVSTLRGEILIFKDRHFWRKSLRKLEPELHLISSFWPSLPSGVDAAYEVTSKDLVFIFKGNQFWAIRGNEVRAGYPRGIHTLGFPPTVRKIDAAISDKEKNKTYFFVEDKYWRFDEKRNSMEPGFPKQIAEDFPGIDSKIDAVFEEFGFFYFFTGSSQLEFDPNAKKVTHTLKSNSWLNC

Target: T1, prolargin (PRELP), recombinant human (human) (UniProt P51888)
T1 sequence: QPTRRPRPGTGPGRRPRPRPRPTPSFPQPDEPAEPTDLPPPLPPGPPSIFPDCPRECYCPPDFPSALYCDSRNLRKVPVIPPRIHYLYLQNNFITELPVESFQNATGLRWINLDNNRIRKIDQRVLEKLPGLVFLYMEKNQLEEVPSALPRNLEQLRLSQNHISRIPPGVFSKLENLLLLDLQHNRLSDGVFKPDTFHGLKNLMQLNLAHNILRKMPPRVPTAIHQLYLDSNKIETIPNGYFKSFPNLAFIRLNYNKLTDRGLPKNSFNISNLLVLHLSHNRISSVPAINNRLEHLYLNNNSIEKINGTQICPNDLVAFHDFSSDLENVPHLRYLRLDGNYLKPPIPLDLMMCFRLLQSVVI
Assay: affinity purification with mass spectrometry

binding | Substance
binds | matrix metalloproteinase-1 (MMP1) (from UniProt P03956) (enzyme)
binds | matrix metalloproteinase-3 (MMP3) (from UniProt P08254) (enzyme)
